Measured values: the supplement of paper PMC6411743
± gives the standard deviation of the averaged measurements. Only a part is listed here, and it is no random draw. Most entries show no effect beyond the scatter of the controls.

By UniProt entry, the sequences of proteins in these tests, tags left out. Where a name states a change or a piece, a line headed by the entry shows the natural chain unless it says otherwise.
UniProt Q7Z3B4: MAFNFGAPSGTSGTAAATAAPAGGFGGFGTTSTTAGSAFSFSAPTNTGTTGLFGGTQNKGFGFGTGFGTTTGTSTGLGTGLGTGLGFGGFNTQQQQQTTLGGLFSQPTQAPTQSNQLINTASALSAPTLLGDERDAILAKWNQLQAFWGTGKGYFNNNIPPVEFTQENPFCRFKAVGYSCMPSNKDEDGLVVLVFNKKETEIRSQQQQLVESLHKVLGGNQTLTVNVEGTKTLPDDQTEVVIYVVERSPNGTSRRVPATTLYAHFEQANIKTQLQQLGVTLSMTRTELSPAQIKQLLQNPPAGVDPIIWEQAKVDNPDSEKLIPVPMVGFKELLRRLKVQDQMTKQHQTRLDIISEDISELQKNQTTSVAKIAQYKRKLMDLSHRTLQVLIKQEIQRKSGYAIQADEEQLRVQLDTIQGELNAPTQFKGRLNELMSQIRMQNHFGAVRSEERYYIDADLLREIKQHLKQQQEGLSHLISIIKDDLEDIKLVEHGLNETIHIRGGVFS
UniProt Q6QNY0: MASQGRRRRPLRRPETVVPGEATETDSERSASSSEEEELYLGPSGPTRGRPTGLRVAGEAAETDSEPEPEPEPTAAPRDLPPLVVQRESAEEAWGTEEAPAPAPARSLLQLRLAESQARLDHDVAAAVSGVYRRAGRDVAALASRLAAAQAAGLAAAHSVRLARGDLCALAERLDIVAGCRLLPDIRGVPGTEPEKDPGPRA
UniProt Q6UXN9, whole entry: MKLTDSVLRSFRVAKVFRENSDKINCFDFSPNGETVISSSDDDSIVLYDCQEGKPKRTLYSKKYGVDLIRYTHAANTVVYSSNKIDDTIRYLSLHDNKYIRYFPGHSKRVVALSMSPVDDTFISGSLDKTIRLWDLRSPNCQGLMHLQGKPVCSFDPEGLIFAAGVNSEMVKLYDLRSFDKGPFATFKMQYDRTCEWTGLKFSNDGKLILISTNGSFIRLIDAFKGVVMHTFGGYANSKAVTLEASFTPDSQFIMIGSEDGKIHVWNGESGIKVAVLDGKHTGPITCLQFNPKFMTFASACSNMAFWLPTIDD
UniProt Q7Z333: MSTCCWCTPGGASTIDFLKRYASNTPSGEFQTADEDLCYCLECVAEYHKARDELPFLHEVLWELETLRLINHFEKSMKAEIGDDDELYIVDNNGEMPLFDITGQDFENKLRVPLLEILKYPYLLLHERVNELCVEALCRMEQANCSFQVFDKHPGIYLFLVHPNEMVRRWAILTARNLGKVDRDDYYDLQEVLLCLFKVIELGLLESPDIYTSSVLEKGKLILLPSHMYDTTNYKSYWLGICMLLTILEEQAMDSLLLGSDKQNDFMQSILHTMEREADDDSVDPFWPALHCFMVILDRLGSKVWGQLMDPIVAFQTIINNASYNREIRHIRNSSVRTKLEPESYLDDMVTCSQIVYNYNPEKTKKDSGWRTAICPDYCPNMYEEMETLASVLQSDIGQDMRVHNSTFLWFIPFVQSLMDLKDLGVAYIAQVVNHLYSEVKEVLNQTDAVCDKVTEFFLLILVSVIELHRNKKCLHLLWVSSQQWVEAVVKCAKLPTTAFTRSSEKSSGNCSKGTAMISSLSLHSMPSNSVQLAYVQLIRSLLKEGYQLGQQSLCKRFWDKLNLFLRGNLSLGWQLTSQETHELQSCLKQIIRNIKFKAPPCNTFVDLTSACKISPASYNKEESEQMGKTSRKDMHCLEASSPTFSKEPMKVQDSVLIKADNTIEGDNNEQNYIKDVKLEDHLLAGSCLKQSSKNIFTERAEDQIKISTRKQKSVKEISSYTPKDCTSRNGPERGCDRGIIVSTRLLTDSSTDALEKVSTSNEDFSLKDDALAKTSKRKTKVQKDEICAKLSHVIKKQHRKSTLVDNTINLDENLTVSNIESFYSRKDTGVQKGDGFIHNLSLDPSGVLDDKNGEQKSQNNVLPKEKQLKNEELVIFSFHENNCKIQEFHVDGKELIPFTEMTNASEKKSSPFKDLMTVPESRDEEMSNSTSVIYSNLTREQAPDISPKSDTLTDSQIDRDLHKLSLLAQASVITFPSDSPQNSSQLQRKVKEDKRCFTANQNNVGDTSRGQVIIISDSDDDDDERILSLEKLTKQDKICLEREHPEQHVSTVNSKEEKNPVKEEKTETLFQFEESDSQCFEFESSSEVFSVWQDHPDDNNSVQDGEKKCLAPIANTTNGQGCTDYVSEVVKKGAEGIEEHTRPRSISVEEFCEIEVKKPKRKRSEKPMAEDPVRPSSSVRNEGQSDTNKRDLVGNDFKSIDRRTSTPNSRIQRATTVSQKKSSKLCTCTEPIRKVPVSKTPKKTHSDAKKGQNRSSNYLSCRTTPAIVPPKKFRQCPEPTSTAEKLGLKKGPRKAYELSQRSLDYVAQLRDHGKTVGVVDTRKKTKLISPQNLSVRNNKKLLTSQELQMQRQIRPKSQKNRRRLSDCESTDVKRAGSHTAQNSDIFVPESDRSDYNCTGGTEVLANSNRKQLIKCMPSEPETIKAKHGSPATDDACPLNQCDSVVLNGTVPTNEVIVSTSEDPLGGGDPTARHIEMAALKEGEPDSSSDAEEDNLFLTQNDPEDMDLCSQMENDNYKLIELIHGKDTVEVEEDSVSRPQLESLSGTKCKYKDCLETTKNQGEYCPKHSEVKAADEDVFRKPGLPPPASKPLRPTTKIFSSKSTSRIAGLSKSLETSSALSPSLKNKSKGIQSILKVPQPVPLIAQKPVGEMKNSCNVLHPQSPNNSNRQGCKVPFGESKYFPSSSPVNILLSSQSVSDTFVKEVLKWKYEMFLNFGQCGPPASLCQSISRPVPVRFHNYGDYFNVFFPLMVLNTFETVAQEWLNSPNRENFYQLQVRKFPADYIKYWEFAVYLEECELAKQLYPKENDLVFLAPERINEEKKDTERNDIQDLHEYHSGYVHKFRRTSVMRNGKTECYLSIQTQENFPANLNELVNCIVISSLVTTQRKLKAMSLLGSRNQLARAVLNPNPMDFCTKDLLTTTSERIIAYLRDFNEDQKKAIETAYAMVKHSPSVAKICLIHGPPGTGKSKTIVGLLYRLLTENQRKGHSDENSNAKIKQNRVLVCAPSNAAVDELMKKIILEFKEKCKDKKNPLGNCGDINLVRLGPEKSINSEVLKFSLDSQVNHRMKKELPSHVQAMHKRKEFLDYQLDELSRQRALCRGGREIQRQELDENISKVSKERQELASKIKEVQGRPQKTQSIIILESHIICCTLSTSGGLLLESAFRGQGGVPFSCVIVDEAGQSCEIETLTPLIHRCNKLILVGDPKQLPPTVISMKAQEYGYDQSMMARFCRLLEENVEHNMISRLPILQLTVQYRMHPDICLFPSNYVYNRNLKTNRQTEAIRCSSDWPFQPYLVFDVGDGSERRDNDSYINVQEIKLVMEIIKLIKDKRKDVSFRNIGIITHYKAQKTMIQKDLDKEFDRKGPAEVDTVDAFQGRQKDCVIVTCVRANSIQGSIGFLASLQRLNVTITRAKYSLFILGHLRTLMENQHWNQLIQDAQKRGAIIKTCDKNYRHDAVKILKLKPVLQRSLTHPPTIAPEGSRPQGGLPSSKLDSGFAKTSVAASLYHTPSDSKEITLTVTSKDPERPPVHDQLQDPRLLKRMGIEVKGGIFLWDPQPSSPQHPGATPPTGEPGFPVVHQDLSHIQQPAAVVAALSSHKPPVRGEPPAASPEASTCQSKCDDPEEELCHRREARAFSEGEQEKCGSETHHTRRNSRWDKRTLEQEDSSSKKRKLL
UniProt Q7Z591: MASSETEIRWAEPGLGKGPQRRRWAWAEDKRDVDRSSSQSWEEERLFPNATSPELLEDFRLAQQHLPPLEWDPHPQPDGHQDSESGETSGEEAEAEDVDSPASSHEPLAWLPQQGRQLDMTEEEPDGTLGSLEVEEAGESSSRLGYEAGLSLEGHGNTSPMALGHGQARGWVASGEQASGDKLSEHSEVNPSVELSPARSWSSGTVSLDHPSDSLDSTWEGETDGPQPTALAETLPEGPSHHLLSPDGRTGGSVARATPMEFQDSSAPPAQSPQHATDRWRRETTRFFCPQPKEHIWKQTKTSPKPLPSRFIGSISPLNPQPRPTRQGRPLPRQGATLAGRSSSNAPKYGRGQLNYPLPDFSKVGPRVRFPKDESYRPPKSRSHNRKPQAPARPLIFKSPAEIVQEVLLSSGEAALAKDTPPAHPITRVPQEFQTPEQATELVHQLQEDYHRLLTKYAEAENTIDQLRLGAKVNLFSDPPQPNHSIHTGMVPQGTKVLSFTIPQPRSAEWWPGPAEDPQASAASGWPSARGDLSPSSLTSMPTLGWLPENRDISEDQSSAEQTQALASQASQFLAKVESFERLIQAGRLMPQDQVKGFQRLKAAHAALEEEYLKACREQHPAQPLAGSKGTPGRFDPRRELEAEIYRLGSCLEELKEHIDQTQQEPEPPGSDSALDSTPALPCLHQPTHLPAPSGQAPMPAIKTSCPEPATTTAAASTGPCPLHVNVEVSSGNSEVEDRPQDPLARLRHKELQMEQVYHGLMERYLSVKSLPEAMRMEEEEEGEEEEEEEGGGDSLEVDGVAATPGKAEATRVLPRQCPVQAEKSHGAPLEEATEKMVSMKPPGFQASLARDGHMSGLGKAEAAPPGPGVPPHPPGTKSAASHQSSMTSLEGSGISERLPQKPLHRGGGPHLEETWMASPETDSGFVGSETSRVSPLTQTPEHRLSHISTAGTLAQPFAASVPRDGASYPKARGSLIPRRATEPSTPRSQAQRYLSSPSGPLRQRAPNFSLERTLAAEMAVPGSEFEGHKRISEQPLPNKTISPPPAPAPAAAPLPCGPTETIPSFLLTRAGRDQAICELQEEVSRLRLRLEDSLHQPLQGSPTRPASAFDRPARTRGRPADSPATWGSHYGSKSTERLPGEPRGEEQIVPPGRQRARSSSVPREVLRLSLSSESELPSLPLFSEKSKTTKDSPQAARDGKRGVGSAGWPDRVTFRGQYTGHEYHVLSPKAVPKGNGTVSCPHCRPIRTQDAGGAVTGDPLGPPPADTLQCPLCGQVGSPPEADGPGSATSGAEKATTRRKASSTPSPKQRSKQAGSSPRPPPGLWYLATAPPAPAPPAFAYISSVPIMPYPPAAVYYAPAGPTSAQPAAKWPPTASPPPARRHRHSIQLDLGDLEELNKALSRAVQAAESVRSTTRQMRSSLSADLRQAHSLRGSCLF
UniProt Q69YN2: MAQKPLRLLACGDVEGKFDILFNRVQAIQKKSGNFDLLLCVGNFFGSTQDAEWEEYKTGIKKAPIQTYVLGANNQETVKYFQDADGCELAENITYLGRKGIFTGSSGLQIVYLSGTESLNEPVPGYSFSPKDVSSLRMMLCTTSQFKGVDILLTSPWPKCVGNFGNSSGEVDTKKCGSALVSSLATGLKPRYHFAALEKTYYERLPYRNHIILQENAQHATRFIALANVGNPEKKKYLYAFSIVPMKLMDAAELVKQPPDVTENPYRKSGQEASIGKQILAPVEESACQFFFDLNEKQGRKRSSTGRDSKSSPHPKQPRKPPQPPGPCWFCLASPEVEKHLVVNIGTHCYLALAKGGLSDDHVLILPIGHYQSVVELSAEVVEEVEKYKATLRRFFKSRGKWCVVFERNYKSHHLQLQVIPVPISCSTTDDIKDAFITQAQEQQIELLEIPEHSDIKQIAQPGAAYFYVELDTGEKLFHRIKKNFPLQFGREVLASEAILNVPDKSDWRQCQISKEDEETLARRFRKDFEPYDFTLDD
UniProt Q6GPH4: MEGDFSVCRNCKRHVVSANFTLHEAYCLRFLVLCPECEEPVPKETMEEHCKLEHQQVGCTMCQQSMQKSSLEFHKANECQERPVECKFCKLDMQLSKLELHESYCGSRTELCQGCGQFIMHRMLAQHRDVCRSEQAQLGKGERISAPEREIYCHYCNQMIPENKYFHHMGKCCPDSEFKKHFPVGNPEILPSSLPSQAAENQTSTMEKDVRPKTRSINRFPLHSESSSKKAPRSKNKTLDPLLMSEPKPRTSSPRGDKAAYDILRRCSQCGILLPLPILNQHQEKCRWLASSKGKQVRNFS
UniProt Q6PI26: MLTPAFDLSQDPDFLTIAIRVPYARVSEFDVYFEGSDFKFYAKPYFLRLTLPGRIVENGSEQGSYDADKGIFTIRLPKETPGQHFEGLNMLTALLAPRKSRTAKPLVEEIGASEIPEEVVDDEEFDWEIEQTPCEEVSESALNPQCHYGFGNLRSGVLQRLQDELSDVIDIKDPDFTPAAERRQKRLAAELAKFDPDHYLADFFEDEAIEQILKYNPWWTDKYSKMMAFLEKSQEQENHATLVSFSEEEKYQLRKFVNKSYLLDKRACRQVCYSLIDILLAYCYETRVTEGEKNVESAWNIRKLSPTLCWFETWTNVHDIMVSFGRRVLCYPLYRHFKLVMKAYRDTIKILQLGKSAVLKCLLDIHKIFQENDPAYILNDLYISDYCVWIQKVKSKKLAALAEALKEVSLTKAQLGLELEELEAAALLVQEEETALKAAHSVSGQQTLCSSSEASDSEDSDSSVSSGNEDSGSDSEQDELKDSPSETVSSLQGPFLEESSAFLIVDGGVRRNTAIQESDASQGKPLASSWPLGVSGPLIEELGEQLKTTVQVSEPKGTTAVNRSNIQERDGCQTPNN

Compound: Nc1ncnc2c1ncn2[C@@H]1O[C@H](COP(=O)(O)OP(=O)(O)NP(=O)(O)O)[C@@H](O)[C@H]1O [adenylyl imidodiphosphate]
Test: NP40-soluble protein abundance relative to vehicle (solubility fold change) (ratio); higher = more soluble protein in presence of AMP-PNP
Conditions: concentration: 0.5mM
Outline: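 In three independent experiments, Jurkat crude lysate made by Dounce homogenisation was treated for 10 min at room temperature and then 3 min at 37 °C with eight concentrations ranging from 0.1 to 10 mM. It was then solubilised with 0.8% NP40 plus benzonase for 60 min at 4 °C and ultracentrifuged. The supernatant was TMT-labelled for LC-MS/MS, and each value is the fold change against the detergent-processed vehicle for the same replicate, using vsn-normalised intensities.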

Target	NP40-soluble protein abundance
Q5W125 and related entries (UniProt Q9NWW6)	0.98 ± 0.013
UniProt Q7Z392	0.992 ± 0.052
UniProt Q7Z3B4 and related entries	0.983 ± 0.028
NUDT18 (UniProt Q6ZVK8)	1.01 ± 0.025
BLOC1S3 (UniProt Q6QNY0)	0.989 ± 0.055
DNMBP (UniProt Q6XZF7)	1.02 ± 0.0081
NUFIP2 (UniProt Q7Z417)	1.06 ± 0.049
UniProt Q7Z3C6 and related entries	1 ± 0.016
UniProt Q68CP9 and related entries	1.02 ± 0.035
UniProt Q6IAA8 and related entries	0.995 ± 0.054
UniProt Q6UXN9 and related entries	1 ± 0.094
UniProt Q5VVQ6 and related entries	0.931 ± 0.043
Q5VY60 and related entries (UniProt Q7Z4H7)	1.03 ± 0.047
UniProt Q6NYC1 and related entries	1.01 ± 0.02
AAGAB (UniProt Q6PD74)	1.04 ± 0.034
NADSYN1 (UniProt Q6IA69)	0.982 ± 0.058
UniProt Q5W0U4	0.995 ± 0.032
UniProt Q5VIR6-4	1.05 ± 0.041
PPP2R2D (UniProt Q66LE6)	0.963 ± 0.015

Target	NP40-soluble protein abundance
PAXIP1 (UniProt Q6ZW49)	1.03 ± 0.048
UniProt Q7Z333 and related entries	1.01 ± 0.05
UniProt Q5VYS8 and related entries	1.01 ± 0.02
UniProt Q7Z591 and related entries	1.01 ± 0.011
PHLDB3 (UniProt Q6NSJ2)	1.03 ± 0.024
UniProt Q6Y1H2	0.988 ± 0.028
GRAMD4 (UniProt Q6IC98)	1.03 ± 0.036
CWF19L1 (UniProt Q69YN2)	0.991 ± 0.027
SPNS3 (UniProt Q6ZMD2)	0.999 ± 0.015
UniProt Q63HQ0	0.957 ± 0.011
C16orf87 (UniProt Q6PH81)	0.982 ± 0.055
UniProt Q6NW34 and related entries	0.999 ± 0.016
KCTD9 (UniProt Q7L273)	1.01 ± 0.033
UniProt Q6VMQ6 and related entries	1.02 ± 0.038
UniProt Q6GPH4 and related entries	0.98 ± 0.051
UniProt Q6PI26 and related entries	1.02 ± 0.011
UniProt Q68EM7-2|Q68EM7-3|Q68EM7	1.01 ± 0.036
UniProt Q6PJT7-2|Q6PJT7-3|Q6PJT7-5|Q6PJT7-9|Q6PJT7	1.003 ± 0.0076
RNF20 (UniProt Q5VTR2)	1.01 ± 0.036

Pulled one by one from above (two):
Target	NP40-soluble protein abundance
CWF19L1 (UniProt Q69YN2)	0.991 ± 0.027
PAXIP1 (UniProt Q6ZW49)	1.03 ± 0.048
